This test deals with CD8F1 mice, subcutaneous mammary adenocarcinoma, T/C%. Nature of the test: NCI In Vivo Anticancer Drug Screen. Data for tumor model Mammary Adenocarcinoma CD8F1 (subcutaneous) in CD8F1. To be noted: higher T/C = larger tumour. Here is the method: The antitumor activity of compounds was measured in mice bearing transplantable tumors. Survival or tumor size were measured and the results are expressed as the measurement made in the treated group (T) divided by the measurement made in the vehicle treated control group (C). The tumor model used in this assay is Mammary Adenocarcinoma CD8F1 (subcutaneous) in CD8F1

Where [1] appears, read: T/C endpoint: median tumor weight change, dose: 1000.0 mg/kg/injection, schedule: Q01DX001 (ip), vehicle: Klucel (hydroxypropylcellulose) (HPC).
Where [2] appears, read: T/C endpoint: median tumor weight (est.), dose: 100.0 mg/kg/injection, schedule: Q07DX005 (ip), vehicle: saline with Tween-80.
[3] abbreviates: T/C endpoint: median tumor weight (est.), dose: 200.0 mg/kg/injection, schedule: Q07DX005 (ip), vehicle: saline with Tween-80.

The list is a part of this screen's results and no random one: it gathers tests that were run many times, whatever their T/C, doses with no T/C, and many T/C values between a quarter and a half above the control. Other doses and runs of a compound stand elsewhere. T/C: endpoint of the treated group in % of that of the vehicle group. Schedules are NCI's codes, taken here to give the interval after Q, in days (D) or hours (H), and the number of doses after X. Some T/C values carry the count of animals alive at the toxicity check (mostly the fifth day); without a count, all were alive then. Some entries give survivors of the animals treated and no T/C: the source holds a T/C of zero for them, seemingly a mark for toxic or unscored doses. Survivors were counted at the toxicity check, usually on the fifth day, unless a day is given; later deaths do not show. Some doses were run more than once; their values stand side by side, smallest first.

Regarding `O=C(O)CC(=O)O.[NH-]C1CCCCC1[NH-].[Pt+2]` (centres undefined), the survivor count (T/C endpoint: median tumor weight (est.), dose: 160.0 mg/kg/injection, schedule: Q07DX005 (ip), vehicle: dextrose) was 3 of 10.
In the case of `C=C1C(=O)OCC1C(=O)O` (centres undefined), the T/C (T/C endpoint: median tumor weight change, dose: 31.25 mg/kg/injection, schedule: Q01DX001 (ip), vehicle: suspension in saline, evaluated on day 49) is 130 % of control. Further, the survivor count (T/C endpoint: median tumor weight change, dose: 250.0 mg/kg/injection, schedule: Q01DX001 (ip), vehicle: suspension in saline) is reported as 0 of 10 on day 49.
Consider `CC1(C)N=C(N)N=C(N)N1c1ccc(F)c(C(F)(F)F)c1`, for which the T/C (T/C endpoint: median tumor weight (est.), dose: 6.25 mg/kg/injection, schedule: Q07DX005 (ip), vehicle: saline, evaluated on day 35) is 134 % of control. Also, the survivor count (T/C endpoint: median tumor weight (est.), dose: 100.0 mg/kg/injection, schedule: Q07DX005 (ip), vehicle: saline) is 2 of 10.
In the case of `COc1cc(C(C)(C)C)cc(OC)c1C(O)(c1c(OC)cc(C(C)(C)C)cc1OC)c1c(OC)cc(C(C)(C)C)cc1OC`, the survivor count is 3 of 10 on day 38 under setting [1] and 4 of 10 on day 32 (T/C endpoint: median tumor weight change, dose: 1000.0 mg/kg/injection, schedule: Q01DX001 (ip), vehicle: saline with Tween-80).
Regarding `C/C=C/C=C/c1cc2cc3c(c(O)c2c(=O)[nH]1)C1(CC3)C(O)=c2c(=O)c3c(=O)cc(OC)c(=O)c=3c(=O)c2=C1O` (centres undefined), the T/C (T/C endpoint: median tumor weight change, dose: 0.31 mg/kg/injection, schedule: Q01DX001 (ip), vehicle: DMSO, evaluated on day 31) was 144 % of control. Besides, the survivor count was 0 of 10 on day 31 and 6 of 10 on day 32 (T/C endpoint: median tumor weight change, dose: 2.5 mg/kg/injection, schedule: Q01DX001 (ip), vehicle: DMSO); 0 of 10 on day 31 and 0 of 10 on day 32 (T/C endpoint: median tumor weight change, dose: 5.0 mg/kg/injection, schedule: Q01DX001 (ip), vehicle: DMSO).
As to `Cc1cc(=NO)cc(C)n1O`, the survivor count is, setting by setting: (T/C endpoint: median tumor weight change, dose: 1000.0 mg/kg/injection, schedule: Q01DX001 (ip), vehicle: distilled water + alcohol) 1 of 10 on day 32 and 4 of 10 on day 29; (T/C endpoint: median tumor weight change, dose: 2000.0 mg/kg/injection, schedule: Q01DX001 (ip), vehicle: distilled water + alcohol) 0 of 10 on day 29 and 0 of 10 on day 32.
Consider `CC(=O)OC1(C)CC(C)C(=O)C(C(O)CC2CC(=O)NC(=O)C2)C1` (centres undefined), for which, under “T/C endpoint: median tumor weight (est.), dose: 47.0 micrograms/kg/injection, schedule: Q07DX005 (ip), vehicle: saline, evaluated on day 30”, the T/C is 149 % of control [9 of 10 alive on day 30].
Regarding `CC12C(=O)C=CCC1=CCC1C2CCC2(O)C(=O)OC3(C)C4CC5(C)C(COC16OC23C5C6=O)C(=O)O4` (centres undefined), the T/C (T/C endpoint: median tumor weight change, dose: 125.0 mg/kg/injection, schedule: Q01DX001 (ip), vehicle: Klucel (hydroxypropylcellulose) (HPC), evaluated on day 29) was 138 % of control [9 of 10 alive on day 29]. Besides, the survivor count runs as follows: under setting [1], 0 of 10 on day 29; (T/C endpoint: median tumor weight change, dose: 2000.0 mg/kg/injection, schedule: Q01DX001 (ip), vehicle: Klucel (hydroxypropylcellulose) (HPC)) 0 of 10 on day 29.
`O=P(O)(NCCCl)NCCCl`: the survivor count runs as follows: (T/C endpoint: median tumor weight change, dose: 100.0 mg/kg/injection, schedule: Q01DX001 (ip), vehicle: suspension in saline) 4 of 10 on day 37; (T/C endpoint: median tumor weight change, dose: 200.0 mg/kg/injection, schedule: Q01DX001 (ip), vehicle: suspension in saline) 0 of 10 on day 37; (T/C endpoint: median tumor weight change, dose: 400.0 mg/kg/injection, schedule: Q01DX001 (ip), vehicle: saline) 2 of 10 on day 28; (T/C endpoint: median tumor weight change, dose: 400.0 mg/kg/injection, schedule: Q01DX001 (ip), vehicle: suspension in saline) 1 of 10 on day 37.
As to `CC(C)NCC(O)COc1ccc(O)c(O)c1` (centres undefined), the survivor count is 2 of 10 on day 29 and 3 of 10 on day 31 (T/C endpoint: median tumor weight change, dose: 250.0 mg/kg/injection, schedule: Q01DX001 (ip), vehicle: saline); 1 of 10 on day 29 and 1 of 10 on day 31 (T/C endpoint: median tumor weight change, dose: 500.0 mg/kg/injection, schedule: Q01DX001 (ip), vehicle: saline); 0 of 10 on day 31 and 1 of 10 on day 29 (T/C endpoint: median tumor weight change, dose: 1000.0 mg/kg/injection, schedule: Q01DX001 (ip), vehicle: saline); 0 of 10 on day 29 and 0 of 10 on day 31 (T/C endpoint: median tumor weight change, dose: 2000.0 mg/kg/injection, schedule: Q01DX001 (ip), vehicle: saline).
With `O=C(O)C1CC(c2ccccc2)=NN1c1ccccc1` (centres undefined), for the setting “T/C endpoint: median tumor weight (est.), dose: 400.0 mg/kg/injection, schedule: Q07DX005 (ip), vehicle: water”, the survivor count is recorded as 0 of 10 on day 30.
Turning to `Cc1ccc(S(=O)(=O)NC(=S)S)cc1`, under “T/C endpoint: median tumor weight (est.), dose: 50.0 mg/kg/injection, schedule: Q07DX005 (ip), vehicle: saline with Tween-80, evaluated on day 30”, the T/C is 125 % of control [9 of 10 alive].
Regarding `Cn1c(=O)[nH]c2nncnc2c1=O`, the survivor count runs as follows: (T/C endpoint: median tumor weight change, dose: 125.0 mg/kg/injection, schedule: Q01DX001 (ip), vehicle: other) 1 of 10 on day 33; (T/C endpoint: median tumor weight change, dose: 250.0 mg/kg/injection, schedule: Q01DX001 (ip), vehicle: other) 0 of 10 on day 33.
Regarding `COc1ccc(C(=O)/C(Br)=C/C(=O)O)cc1`, the survivor count runs as follows: (T/C endpoint: mean tumor weight, dose: 100.0 mg/kg/injection, schedule: Q01DX009 (ip), vehicle: saline) 2 of 10; (T/C endpoint: median tumor weight (est.), dose: 128.0 mg/kg/injection, schedule: Q04DX005 (ip), vehicle: saline) 1 of 10; (T/C endpoint: median tumor weight (est.), dose: 128.0 mg/kg/injection, schedule: Q07DX005 (ip), vehicle: saline) 3 of 10. Besides, the T/C runs as follows: (T/C endpoint: median tumor weight (est.), dose: 8.0 mg/kg/injection, schedule: Q01DX005 (ip), vehicle: saline, evaluated on day 30) 125 % of control; (T/C endpoint: median tumor weight (est.), dose: 16.0 mg/kg/injection, schedule: Q04DX005 (ip), vehicle: saline, evaluated on day 30) 125 % of control; (T/C endpoint: median tumor weight (est.), dose: 32.0 mg/kg/injection, schedule: Q04DX005 (ip), vehicle: saline, evaluated on day 30) 133 % of control.
Turning to `O=C(C/C(=N\C(=S)Nc1cc(C(F)(F)F)ccc1Cl)NO)N1CCCC1`, the T/C (T/C endpoint: median tumor weight change, dose: 62.0 mg/kg/injection, schedule: Q01DX001 (ip), vehicle: saline with Tween-80, evaluated on day 26) is 129 % of control.
With `O=S1(=O)C=C(c2ccccc2)C(c2ccccc2)=C1`, the T/C (T/C endpoint: median tumor weight (est.), dose: 12.5 mg/kg/injection, schedule: Q07DX005 (ip), vehicle: saline with Tween-80, evaluated on day 30) was 138 % of control [8 of 10 alive on day 30]. In addition, the survivor count under setting [2] is listed as 0 of 10 on day 30 and the survivor count under setting [3] is listed as 0 of 10 on day 30.
Regarding `Cc1cc(=O)n2c3c(c4c(cc13)c(CN(C)C)cc(=O)n4C)OC2`, the survivor count by setting is: (T/C endpoint: median tumor weight change, dose: 125.0 mg/kg/injection, schedule: Q01DX001 (ip), vehicle: saline with Tween-80) 5 of 10 on day 26; (T/C endpoint: median tumor weight change, dose: 250.0 mg/kg/injection, schedule: Q01DX001 (ip), vehicle: saline with Tween-80) 0 of 10 on day 26; (T/C endpoint: median tumor weight change, dose: 500.0 mg/kg/injection, schedule: Q01DX001 (ip), vehicle: saline with Tween-80) 0 of 10 on day 26.
On to `C/C=C(\C)c1cc(=O)c2c(C)cc3c(c2o1)C(=O)c1c(O)c(C2CC(C)(N(C)C)C(OC(C)=O)C(C)O2)cc(C2CC(N(C)C)C(O)C(C)O2)c1C3=O` (centres undefined), for which the survivor count is 4 of 10 on day 30 (T/C endpoint: median tumor weight (est.), dose: 1.25 mg/kg/injection, schedule: Q07DX005 (ip), vehicle: saline); 2 of 10 on day 30 (T/C endpoint: median tumor weight (est.), dose: 2.5 mg/kg/injection, schedule: Q07DX005 (ip), vehicle: saline); 0 of 10 on day 30 (T/C endpoint: median tumor weight (est.), dose: 5.0 mg/kg/injection, schedule: Q07DX005 (ip), vehicle: saline).
Consider `CC1OC(=O)C(C(C)C)NC(=O)C(C(C)C)OC(=O)C(C(C)C)NC(=O)C(C)OC(=O)C(C(C)C)NC(=O)C(C(C)C)OC(=O)C(C(C)C)NC(=O)C(C)OC(=O)C(C(C)C)NC(=O)C(C(C)C)OC(=O)C(C(C)C)NC1=O` (centres undefined), for which the survivor count (T/C endpoint: median tumor weight (est.), dose: 40.0 mg/kg/injection, schedule: Q07DX005 (ip), vehicle: saline with Tween-80) is on record as 0 of 10 on day 30.
Take `COc1cc2cc[n+](C)c(Cc3ccccc3)c2cc1OC`: the survivor count reads like this: under setting [2], 0 of 10 on day 30; under setting [3], 0 of 10 on day 30.
With `CC[C@@]1(O)C[C@H](OC2CC(N(C)C)C(OC3CC(O)C(O[C@@H]4O[C@@H](C)C(=O)C=C4N)C(C)O3)C(C)O2)c2c(cc3c(c2O)C(=O)c2c(O)ccc(O)c2C3=O)[C@H]1C(=O)OC` (some centres undefined), the T/C is 148 % of control (T/C endpoint: median tumor weight (est.), dose: 1.0 micrograms/kg/injection, schedule: Q07DX005 (ip), vehicle: Klucel (hydroxypropylcellulose) (HPC), evaluated on day 30) and 142 % of control (T/C endpoint: median tumor weight (est.), dose: 4.0 micrograms/kg/injection, schedule: Q07DX005 (ip), vehicle: Klucel (hydroxypropylcellulose) (HPC), evaluated on day 30).

These data come from PubChem BioAssay AID220 (DTP/NCI, 2004).
